Assay results published in US10005817B2 (EUMEDERIS PHARMACEUTICALS, INC., priority 2012, dated 2018).

How the values were obtained:
[1] = general procedure: Fmoc solid-phase peptide synthesis; Fmoc-Rink-Amide resin (0.5 mmol/g); Fmoc-Thr(tBu)-HMP Am Resin (0.45 mmol/g) for EU-A1024; DIC/HOBt; details: whole synthesis, scale of the general procedure 0.3 mmol, 2 mmole for EU-A1024; for final LC-MS purity: analytical hplc/mass spectrometry
[2] = general procedure: Fmoc solid-phase peptide synthesis; Fmoc-Rink-Amide resin; DIC/HOBt; details: whole synthesis, scale 0.3 mmol
[3] = general procedure: Fmoc solid-phase peptide synthesis; Fmoc-Thr(tBu)-HMP Am Resin; DIC/HOBt; details: whole synthesis, scale 2 mmole

Row | Substance | final LC-MS purity [1] [%] | other results
1 | 2′,6′-dimethyl-L-tyrosyl-L-1,2,3,4-tetrahydroisoquinoline-3-carbonyl-L-phenylalanyl-L-phenylalanyl-Nε-(1′-methyl β-D-glucuronyl)-L-lysyl-amide | 98.99 | 
2 | 2′,6′-dimethyl-L-tyrosyl-L-1,2,3,4-tetrahydroisoquinoline-3-carbonyl-L-phenylalanyl-Nε-(1′-methyl β-D-glucuronyl)-L-lysyl-amide | 95.5 | 
3 | 2′,6′-dimethyl-L-tyrosyl-prolyl-2′,4′,6′-trimethyl-L-phenylalanyl-Nε-(1′-octyl β-D-glucuronyl)-L-lysine amide | >96 | crude mass [2]: 290 mg; isolated mass [2]: 100 mg; isolated yield ([1]; overall): 18%
4 | Boc-His(Trt)-Aib-Gln(Trt)-Gly-Thr(tBu)-Phe-Thr(tBu)-Ser(tBu)-Asp(OtBu)-Tyr(tBu)-Ser(tBu)-Lys(Boc)-Tyr(tBu)-Leu-Asp(OtBu)-Glu(O-Allyl)-Gln(Trt)-Ala-Ala-Lys(Alloc)-Glu(O-tBu)-Phe-Ile-Lys(Dde)-Trp(Boc)-Leu-Leu- Gln(Trt)-Thr(tBu)-HMP amide resin |  | crude mass [3]: 5 to 8 g
5 | 2′,6′-dimethyl-L-tyrosyl-Nε-(1′-dodecyl β-D-glucuronyl)-D-lysyl-2′,4′,6′-trimethyl-L-phenylalanyl-L-phenylalanine-amide | 95.8 | 
6 | 2′,6′-dimethyl-L-tyrosyl-prolyl-2′,4′,6′-trimethyl-L-phenylalanyl-L-phenylalanyl-Nε-(1′-dodecyl β-D-glucuronyl)-L-lysine amide | 96.1 | 
